Reference: the supplement of paper PMC7666118
The other results are listed elsewhere or left out.

Chains of the proteins cited; added tags and fusions are not shown. Lines headed by an entry give the natural chain unless they say otherwise; changes in a name come on top.
UniProt P15289: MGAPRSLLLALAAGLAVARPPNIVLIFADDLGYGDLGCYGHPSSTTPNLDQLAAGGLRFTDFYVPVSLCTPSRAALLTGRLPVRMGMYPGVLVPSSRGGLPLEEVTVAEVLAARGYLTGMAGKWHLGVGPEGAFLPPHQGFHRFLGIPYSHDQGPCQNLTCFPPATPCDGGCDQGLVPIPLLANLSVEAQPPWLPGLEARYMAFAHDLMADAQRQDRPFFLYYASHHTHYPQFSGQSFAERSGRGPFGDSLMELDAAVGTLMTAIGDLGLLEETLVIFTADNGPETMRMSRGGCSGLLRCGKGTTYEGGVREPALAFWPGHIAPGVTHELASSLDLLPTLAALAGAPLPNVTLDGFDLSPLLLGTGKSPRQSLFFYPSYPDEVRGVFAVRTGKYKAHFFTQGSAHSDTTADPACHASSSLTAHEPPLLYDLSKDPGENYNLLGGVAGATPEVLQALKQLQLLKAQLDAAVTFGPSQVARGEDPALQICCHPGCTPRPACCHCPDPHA
UniProt Q8IUR7, whole entry: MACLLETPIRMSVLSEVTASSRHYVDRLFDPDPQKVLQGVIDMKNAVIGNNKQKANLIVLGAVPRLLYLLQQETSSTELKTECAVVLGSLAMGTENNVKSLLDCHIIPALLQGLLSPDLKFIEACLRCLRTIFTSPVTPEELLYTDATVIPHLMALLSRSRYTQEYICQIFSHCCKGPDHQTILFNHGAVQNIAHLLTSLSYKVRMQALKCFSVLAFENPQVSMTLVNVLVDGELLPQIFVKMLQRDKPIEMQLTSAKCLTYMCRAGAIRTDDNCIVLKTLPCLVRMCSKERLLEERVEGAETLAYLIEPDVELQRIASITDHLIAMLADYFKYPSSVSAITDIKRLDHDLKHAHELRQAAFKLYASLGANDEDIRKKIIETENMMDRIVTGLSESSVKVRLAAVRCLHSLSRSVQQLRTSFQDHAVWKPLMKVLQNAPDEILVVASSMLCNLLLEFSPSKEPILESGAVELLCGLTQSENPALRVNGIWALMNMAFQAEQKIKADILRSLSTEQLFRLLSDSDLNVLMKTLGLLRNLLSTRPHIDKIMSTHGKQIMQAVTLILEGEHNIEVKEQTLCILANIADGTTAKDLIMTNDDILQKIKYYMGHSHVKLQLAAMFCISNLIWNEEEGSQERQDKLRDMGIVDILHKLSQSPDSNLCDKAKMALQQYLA
UniProt O95999: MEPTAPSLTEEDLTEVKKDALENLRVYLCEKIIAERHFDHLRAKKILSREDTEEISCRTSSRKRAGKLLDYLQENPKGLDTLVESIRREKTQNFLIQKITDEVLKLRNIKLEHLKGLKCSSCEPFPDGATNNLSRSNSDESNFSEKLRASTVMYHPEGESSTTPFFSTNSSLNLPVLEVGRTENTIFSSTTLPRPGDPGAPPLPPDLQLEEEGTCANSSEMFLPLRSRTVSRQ
UniProt P36405: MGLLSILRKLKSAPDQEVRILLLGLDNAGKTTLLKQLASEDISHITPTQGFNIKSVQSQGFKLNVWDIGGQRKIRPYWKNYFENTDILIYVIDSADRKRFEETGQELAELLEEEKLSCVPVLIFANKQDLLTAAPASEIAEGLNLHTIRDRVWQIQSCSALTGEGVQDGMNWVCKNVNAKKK
UniProt Q9Y4D8: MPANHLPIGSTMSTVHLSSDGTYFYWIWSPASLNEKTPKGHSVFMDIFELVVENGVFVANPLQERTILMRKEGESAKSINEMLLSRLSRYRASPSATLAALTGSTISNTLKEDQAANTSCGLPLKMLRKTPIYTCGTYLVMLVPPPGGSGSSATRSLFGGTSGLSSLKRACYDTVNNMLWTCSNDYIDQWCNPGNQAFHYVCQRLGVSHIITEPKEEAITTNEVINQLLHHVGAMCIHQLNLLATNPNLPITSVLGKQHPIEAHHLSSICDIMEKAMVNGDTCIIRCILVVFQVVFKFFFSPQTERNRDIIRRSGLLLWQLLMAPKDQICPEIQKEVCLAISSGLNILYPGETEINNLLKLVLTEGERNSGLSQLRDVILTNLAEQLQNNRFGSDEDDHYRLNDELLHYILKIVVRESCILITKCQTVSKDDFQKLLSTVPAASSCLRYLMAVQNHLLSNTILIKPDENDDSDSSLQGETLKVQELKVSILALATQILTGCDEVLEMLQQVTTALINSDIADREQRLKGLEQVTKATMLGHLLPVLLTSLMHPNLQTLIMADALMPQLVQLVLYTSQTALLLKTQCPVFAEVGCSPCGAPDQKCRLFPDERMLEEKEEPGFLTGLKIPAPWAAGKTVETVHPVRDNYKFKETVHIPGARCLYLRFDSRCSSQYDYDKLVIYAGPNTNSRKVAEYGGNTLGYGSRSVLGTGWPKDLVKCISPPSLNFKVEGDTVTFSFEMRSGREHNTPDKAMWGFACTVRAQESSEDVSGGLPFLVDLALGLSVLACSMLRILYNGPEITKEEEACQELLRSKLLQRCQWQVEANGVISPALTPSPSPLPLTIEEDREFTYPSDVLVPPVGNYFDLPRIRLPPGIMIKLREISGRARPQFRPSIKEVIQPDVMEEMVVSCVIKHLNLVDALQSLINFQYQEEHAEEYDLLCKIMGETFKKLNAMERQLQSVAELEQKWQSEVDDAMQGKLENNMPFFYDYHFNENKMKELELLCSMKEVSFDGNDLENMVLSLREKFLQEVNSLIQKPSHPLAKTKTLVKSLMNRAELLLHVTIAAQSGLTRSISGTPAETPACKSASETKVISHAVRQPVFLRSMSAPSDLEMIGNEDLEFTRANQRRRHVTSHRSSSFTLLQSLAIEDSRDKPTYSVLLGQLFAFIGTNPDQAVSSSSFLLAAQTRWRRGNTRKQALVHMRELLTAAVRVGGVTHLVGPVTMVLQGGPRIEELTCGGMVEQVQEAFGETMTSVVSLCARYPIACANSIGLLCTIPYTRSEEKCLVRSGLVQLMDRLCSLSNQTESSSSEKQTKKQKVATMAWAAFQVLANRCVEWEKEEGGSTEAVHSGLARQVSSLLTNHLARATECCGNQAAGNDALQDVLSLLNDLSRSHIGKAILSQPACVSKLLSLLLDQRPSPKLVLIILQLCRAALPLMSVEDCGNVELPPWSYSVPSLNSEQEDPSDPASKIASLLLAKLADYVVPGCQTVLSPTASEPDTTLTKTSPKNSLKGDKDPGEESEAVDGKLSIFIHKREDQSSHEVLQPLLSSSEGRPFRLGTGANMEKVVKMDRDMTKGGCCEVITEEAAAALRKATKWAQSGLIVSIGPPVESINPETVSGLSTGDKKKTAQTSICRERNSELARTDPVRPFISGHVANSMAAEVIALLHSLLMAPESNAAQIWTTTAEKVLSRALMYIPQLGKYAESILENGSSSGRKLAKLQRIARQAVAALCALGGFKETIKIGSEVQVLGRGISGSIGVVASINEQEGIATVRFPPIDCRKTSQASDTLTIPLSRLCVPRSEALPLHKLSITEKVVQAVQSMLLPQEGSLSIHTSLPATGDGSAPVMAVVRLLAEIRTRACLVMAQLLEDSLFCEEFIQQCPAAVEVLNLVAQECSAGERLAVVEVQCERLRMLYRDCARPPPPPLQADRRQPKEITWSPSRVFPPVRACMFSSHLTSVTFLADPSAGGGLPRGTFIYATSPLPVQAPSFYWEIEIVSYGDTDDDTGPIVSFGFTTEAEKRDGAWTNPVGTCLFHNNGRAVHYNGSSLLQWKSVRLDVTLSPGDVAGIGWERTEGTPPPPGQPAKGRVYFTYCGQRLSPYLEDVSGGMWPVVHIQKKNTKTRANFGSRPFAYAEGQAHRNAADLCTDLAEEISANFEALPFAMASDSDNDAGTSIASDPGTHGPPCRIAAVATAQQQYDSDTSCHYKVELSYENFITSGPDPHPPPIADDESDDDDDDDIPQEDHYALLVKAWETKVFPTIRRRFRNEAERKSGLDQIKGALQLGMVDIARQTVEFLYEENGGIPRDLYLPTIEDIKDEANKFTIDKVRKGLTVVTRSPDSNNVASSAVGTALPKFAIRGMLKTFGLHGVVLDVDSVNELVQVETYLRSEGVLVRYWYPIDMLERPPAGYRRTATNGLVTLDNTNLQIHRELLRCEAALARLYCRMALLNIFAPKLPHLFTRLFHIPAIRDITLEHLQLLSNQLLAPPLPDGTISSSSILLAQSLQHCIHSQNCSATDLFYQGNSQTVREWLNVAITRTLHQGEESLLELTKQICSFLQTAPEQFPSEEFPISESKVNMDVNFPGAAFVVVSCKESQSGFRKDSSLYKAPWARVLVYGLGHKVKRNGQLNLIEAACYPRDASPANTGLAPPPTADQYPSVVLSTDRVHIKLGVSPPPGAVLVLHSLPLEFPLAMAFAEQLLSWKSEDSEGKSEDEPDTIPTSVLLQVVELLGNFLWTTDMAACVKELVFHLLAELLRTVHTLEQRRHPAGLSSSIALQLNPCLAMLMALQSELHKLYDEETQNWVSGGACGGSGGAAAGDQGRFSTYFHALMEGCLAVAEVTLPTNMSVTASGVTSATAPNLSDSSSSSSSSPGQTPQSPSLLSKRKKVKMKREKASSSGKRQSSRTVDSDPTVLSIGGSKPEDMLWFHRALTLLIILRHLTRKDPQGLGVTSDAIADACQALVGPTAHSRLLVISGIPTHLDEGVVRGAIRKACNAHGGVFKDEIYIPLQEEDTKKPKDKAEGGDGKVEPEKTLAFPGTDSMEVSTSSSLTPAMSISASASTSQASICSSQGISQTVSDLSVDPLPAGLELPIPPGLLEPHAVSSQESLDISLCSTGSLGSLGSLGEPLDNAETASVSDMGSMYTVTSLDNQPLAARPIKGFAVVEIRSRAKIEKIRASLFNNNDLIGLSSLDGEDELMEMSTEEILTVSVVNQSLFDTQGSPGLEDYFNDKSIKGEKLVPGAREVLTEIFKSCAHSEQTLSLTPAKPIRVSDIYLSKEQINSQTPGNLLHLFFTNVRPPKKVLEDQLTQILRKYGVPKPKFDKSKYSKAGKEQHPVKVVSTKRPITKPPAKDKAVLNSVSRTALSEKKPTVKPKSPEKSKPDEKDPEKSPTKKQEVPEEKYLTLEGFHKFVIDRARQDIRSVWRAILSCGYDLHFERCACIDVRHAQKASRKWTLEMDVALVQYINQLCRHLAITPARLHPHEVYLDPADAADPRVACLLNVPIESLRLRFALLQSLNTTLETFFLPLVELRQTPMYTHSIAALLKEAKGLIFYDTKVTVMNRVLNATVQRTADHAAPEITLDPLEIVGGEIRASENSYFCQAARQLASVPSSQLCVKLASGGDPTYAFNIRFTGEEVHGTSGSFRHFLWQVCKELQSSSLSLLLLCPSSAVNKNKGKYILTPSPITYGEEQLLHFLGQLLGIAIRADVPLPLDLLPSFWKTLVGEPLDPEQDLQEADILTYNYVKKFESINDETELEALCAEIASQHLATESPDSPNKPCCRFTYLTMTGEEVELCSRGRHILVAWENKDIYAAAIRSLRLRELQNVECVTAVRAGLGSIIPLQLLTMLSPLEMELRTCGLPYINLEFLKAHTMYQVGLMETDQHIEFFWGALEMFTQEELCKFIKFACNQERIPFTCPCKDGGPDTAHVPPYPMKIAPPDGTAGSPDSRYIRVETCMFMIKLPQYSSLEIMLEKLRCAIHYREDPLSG
UniProt Q9Y487, whole entry: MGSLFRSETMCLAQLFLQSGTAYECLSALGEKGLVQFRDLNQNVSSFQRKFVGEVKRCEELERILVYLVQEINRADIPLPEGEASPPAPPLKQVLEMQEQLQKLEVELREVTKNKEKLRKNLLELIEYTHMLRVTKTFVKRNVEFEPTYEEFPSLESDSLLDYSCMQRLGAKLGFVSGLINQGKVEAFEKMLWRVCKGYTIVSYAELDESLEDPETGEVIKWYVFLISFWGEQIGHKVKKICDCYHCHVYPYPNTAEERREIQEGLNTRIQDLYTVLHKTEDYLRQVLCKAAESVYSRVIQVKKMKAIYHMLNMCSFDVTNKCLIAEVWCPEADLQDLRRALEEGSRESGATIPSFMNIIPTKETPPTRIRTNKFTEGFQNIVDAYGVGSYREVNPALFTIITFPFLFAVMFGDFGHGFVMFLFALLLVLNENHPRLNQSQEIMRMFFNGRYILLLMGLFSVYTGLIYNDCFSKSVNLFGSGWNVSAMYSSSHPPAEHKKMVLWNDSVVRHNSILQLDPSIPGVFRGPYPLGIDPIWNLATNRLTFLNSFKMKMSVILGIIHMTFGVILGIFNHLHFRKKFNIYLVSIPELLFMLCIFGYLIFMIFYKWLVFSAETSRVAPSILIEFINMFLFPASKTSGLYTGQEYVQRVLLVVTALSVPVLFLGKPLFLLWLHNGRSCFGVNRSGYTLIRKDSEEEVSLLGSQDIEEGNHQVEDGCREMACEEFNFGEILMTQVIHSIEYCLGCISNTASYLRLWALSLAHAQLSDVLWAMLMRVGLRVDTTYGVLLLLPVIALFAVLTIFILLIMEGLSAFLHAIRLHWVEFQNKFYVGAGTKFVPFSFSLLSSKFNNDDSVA
UniProt Q16864, whole entry: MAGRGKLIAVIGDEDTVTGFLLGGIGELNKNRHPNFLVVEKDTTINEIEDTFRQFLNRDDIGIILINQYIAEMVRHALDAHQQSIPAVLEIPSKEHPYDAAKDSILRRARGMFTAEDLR

Compound: COc1ccc(Cn2ccc3ccc(C(=O)NO)cc32)cc1
Experiment: dose-dependent thermal stabilisation call (2D-TPP, DLPTP, 10% FDR) (binary (1 = stabilised)); higher = stabilised by the compound
Settings: system: HL-60 intact cells; concentration range 0.04-10 µM

| Target | dose-dependent thermal stabilisation call |
| --- | --- |
| ARPC3 (UniProt O15145) | inactive: 0 |
| ATG2B (UniProt Q96BY7) | inactive: 0 |
| ATPBD4 (UniProt Q7L8W6) | inactive: 0 |
| ATL2 (UniProt Q8NHH9) | inactive: 0 |
| UniProt B3GNT1 | inactive: 0 |
| ARL6IP6 (UniProt Q8N6S5) | inactive: 0 |
| ASPM (UniProt Q8IZT6) | inactive: 0 |
| ARSA (UniProt P15289) | inactive: 0 |
| ATP6V0C (UniProt P27449) | inactive: 0 |
| ARMC8 (UniProt Q8IUR7) | inactive: 0 |
| ATP13A3 (UniProt Q9H7F0) | inactive: 0 |
| BCL2L12 (UniProt Q9HB09) | inactive: 0 |
| ATF2 (UniProt P15336) | inactive: 0 |
| BCL10 (UniProt O95999) | inactive: 0 |
| BRAF (UniProt P15056) | inactive: 0 |
| ARPC1B (UniProt O15143) | inactive: 0 |
| ARMC6 (UniProt Q6NXE6) | inactive: 0 |
| ARL3 (UniProt P36405) | inactive: 0 |
| C12ORF51 (UniProt Q9Y4D8) | inactive: 0 |

Reformatted comma-delimited: entries from further up.
Target,dose-dependent thermal stabilisation call
ARPC3 (UniProt O15145),inactive: 0
ATF2 (UniProt P15336),inactive: 0

More records follow.

| Target | dose-dependent thermal stabilisation call |
| --- | --- |
| ASAH1 (UniProt Q13510) | inactive: 0 |
| ATP6V1G1 (UniProt O75348) | inactive: 0 |
| ATXN2L (UniProt Q8WWM7) | inactive: 0 |
| BPGM (UniProt P07738) | inactive: 0 |
| ATP6V0A2 (UniProt Q9Y487) | inactive: 0 |
| ASCC1 (UniProt Q8N9N2) | active: 1 |
| BTN2A1 (UniProt Q7KYR7) | inactive: 0 |
| ATPAF2 (UniProt Q8N5M1) | inactive: 0 |
| C11ORF2 | inactive: 0 |
| BLOC1S3 (UniProt Q6QNY0) | inactive: 0 |
| ATP8B4 (UniProt Q8TF62) | inactive: 0 |
| ATP6V1F (UniProt Q16864) | inactive: 0 |
| BAG1 (UniProt Q99933) | inactive: 0 |
| BAT2D1 (UniProt Q9Y520) | inactive: 0 |
| B3GAT3 (UniProt O94766) | inactive: 0 |
| ATPBD3 (UniProt Q7Z7A3) | inactive: 0 |
| BCS1L (UniProt Q9Y276) | inactive: 0 |
| C12ORF5 (UniProt Q9NQ88) | inactive: 0 |
| ATP13A2 (UniProt Q9NQ11) | inactive: 0 |
